# Data from PubChem BioAssay AID1347076 (National Center for Advancing Translational Sciences (NCATS), 2019).
# Screen size: about 400,000 compounds; about 13,000 (3.2%) were called active. Inconclusive means that the source gave no clear call. Such entries were picked first, then a sample of the others. Calls come from the whole dose curve; as a rule, active = well fitted cell-killing curve with a large enough effect; inconclusive = small, poorly fitted or top-dose-only effect, or effect the other way; inactive = flat fitted curve, though single readings scatter. A potency beside an inconclusive call is a rough fit, not a confirmed value.
# Experiment: qHTS assay for MDR1-selective chemotherapeutics: Primary screen using the drug-selected MDR subline cells KB-V1; note: nearly all actives have a fitted effect of over 60% in size
# Settings: KB-V1 MDR cells viability, CellTiter-Glo, 72 h; activity change, negative = cytotoxicity: at 46.1 µM (top of the series)
# How it was run: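 KB-V1, DMEM (no phenol red) + 10% FBS; cpd pin-transferred, titration series; 72 h, 37 degrees C; CellTiter-Glo, luminescence. Data normalized, curve-fit.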
# % is set by controls: 0 for no effect and ±100 for the full control effect; potency is the fitted concentration of half-maximal effect.
Compound,Potency,"activity change, negative = cytotoxicity"
NC(=O)NC(=O)C(Nc1ccc2c(c1)CCC2)c1ccccc1 (stereo not given),"inconclusive: 0.92 µM [rising, full curve]",
COc1ccccc1C(=O)C1CCCN(C(=O)c2ccc3c(c2)OCCO3)C1 (stereo not given),"inconclusive: 13 µM [cytotoxic, partial curve]",
CC1C=CC(C)C(C(=O)c2ccccc2)C1C(=O)c1ccccc1 (stereo not given),"inconclusive: 13 µM [cytotoxic, partial curve]",
CCOC(=O)c1c(-c2ccc(C)cc2)csc1/N=C/N(C)C,"inconclusive: 23.1 µM [cytotoxic, single point]",
Cc1nn(C)c(Oc2ccccc2)c1CCNC(=O)CC(C)C,"inconclusive: 16.4 µM [cytotoxic, single point]",
Cc1ccccc1N1CCN(C(=O)CN2C(=O)c3ccccc3C2=O)CC1,"inconclusive: 20.6 µM [cytotoxic, partial curve, poor fit]",
CCC(=O)c1c(NC(C)C)cc(C)oc1=O,inactive,
O=C1c2ccccc2-c2ccc(C(=O)N3CCCCC3)cc21,"inconclusive: 29.1 µM [cytotoxic, single point]",
Cc1ccc(OCCSc2nc3ccccc3n2CCC(=O)O)c(C(C)C)c1,"inconclusive: 16.4 µM [cytotoxic, partial curve, poor fit]",
CC1(C)CC(=O)C(C(O)c2ccc([N+](=O)[O-])cc2)C(C)(C)N1 (stereo not given),"inconclusive: 23.1 µM [rising, partial curve, poor fit]",
COc1ccc(CNC(=O)c2cc(=O)c3cc(C)cc(C)c3o2)cc1,inactive,
COc1ccc(-n2ncc(C(=O)NCc3ccco3)c2C2CCN(C(=O)OC(C)(C)C)CC2)cc1,inactive,
CCCCCCCCN1C(=O)[C@H](CC(=O)NCCCOC)C[C@@]2(C(=O)OC)CC(C)(C)CC=C12,inactive,
COc1cccc(CNS(=O)(=O)c2ccc3c(c2)CC(C)N3C(C)=O)c1 (stereo not given),inactive,
COc1ccc(OC)c(S(=O)(=O)N2CCC3(CC2)CC(=O)c2ccccc2O3)c1,"inconclusive: 8.2 µM [cytotoxic, partial curve]",
CC(C)NC(=O)N1CCCN(c2nc3ccc(Cl)cc3s2)CC1,"inconclusive: 20.6 µM [cytotoxic, partial curve]",
c1ccc(OCCOCCN2CCN(C(c3ccccc3)c3ccccc3)CC2)cc1,"inconclusive: 13 µM [cytotoxic, partial curve, poor fit]",
CC(=O)c1c(C)[nH]c(C(=O)COC(=O)CCCOc2ccccc2)c1C,inactive,
O=C(COC(=O)c1ccc(Cl)c(S(=O)(=O)N2CCCCCC2)c1)NCc1ccccc1,inactive,
O=C(Nc1cccnc1)c1ccc(COc2ccccc2Br)o1,"inconclusive: 23.1 µM [cytotoxic, single point]",
c1ccc(C2=NC(c3ccccc3)N=C(c3ccccc3)N2)cc1,inactive,
O=C(Nc1cccc(S(=O)(=O)Nc2ccccc2F)c1)c1ccc2ccccc2n1,inactive,
CCCCNC1C(CC)C(CCC)C(C#N)(C#N)C1(C#N)C#N (stereo not given),"inconclusive: 29.1 µM [cytotoxic, single point]",
CCOc1ccc(C(C)C)cc1S(=O)(=O)N1CCOCC1,"inconclusive: 29.1 µM [cytotoxic, single point]",

# Among those listed so far, 5 have an aryl methoxy group.
Compound,Potency,"activity change, negative = cytotoxicity"
COc1ccccc1C(=O)C1CCCN(C(=O)c2ccc3c(c2)OCCO3)C1 (stereo not given),"inconclusive: 13 µM [cytotoxic, partial curve]",
COc1ccc(CNC(=O)c2cc(=O)c3cc(C)cc(C)c3o2)cc1,inactive,
COc1ccc(-n2ncc(C(=O)NCc3ccco3)c2C2CCN(C(=O)OC(C)(C)C)CC2)cc1,inactive,
COc1cccc(CNS(=O)(=O)c2ccc3c(c2)CC(C)N3C(C)=O)c1 (stereo not given),inactive,
COc1ccc(OC)c(S(=O)(=O)N2CCC3(CC2)CC(=O)c2ccccc2O3)c1,"inconclusive: 8.2 µM [cytotoxic, partial curve]",

# Next part:

Compound,Potency,"activity change, negative = cytotoxicity"
CC[C@]12c3[nH]c4ccc(OC)cc4c3CCN1C(=O)C(CC(=O)NC/C=C(\C)CCC=C(C)C)C[C@@H]2C(=O)N1CCN(C(=O)C2CC2)CC1 (stereo not given in full),"inconclusive: 25.9 µM [cytotoxic, single point]",
CCOCCCNC(=O)C1CCN(S(=O)(=O)N(CC(C)C)CC(C)C)CC1,"inconclusive: 10.3 µM [cytotoxic, partial curve]",
COc1ccccc1CCNC(=O)C1CC(=O)N(c2ccccc2F)C1 (stereo not given),inactive,
CCOC(=O)C(=O)N/N=C/c1ccc(F)cc1,inactive,
COCCn1c(SCc2nc3ccccc3c(=O)[nH]2)nc2ccccc2c1=O,"inconclusive: 9.2 µM [cytotoxic, partial curve]",
CCC1CCCCN1CCCNC(=O)Cn1ncn2nc(-c3ccc(OC)cc3)cc2c1=O (stereo not given),"inconclusive: 9.2 µM [rising, partial curve]",
COc1cccc(NC(=O)COc2cccc3c2CCNC3=O)c1,inactive,
COc1ccc(CCN2C(=O)NC(NC(C)=O)(C(F)(F)F)C2=O)cc1OC (stereo not given),"inconclusive: 20.6 µM [rising, single point]",
CC(C)(C)c1ccc(C(=O)N/N=C/c2cccc(Cl)c2)cc1,active: 23.1 µM,
Cc1ccc(Cc2nc3ccccc3[nH]2)cc1,inactive,
Cc1cc(C)cc(C(=O)NCC(=O)OCC(=O)Nc2cccnc2Cl)c1,"inconclusive: 11.6 µM [cytotoxic, partial curve, poor fit]",
O=C(CCCc1c[nH]c2ccccc12)NCc1ccccc1C(F)(F)F,"inconclusive: 29.1 µM [rising, single point]",
CN(CC(=O)Nc1ccccc1Cl)CC(=O)Nc1cccc2ccccc12,"inconclusive: 18.4 µM [cytotoxic, single point]",
Cc1nc2nc(-c3ccccc3)cc(=O)n2[nH]1,"inconclusive: 20.6 µM [cytotoxic, partial curve, poor fit]",
CCC(Oc1ccccc1)C(=O)Nc1nnc(S(=O)(=O)N(CC)CC)s1 (stereo not given),inactive,
CCOC(=O)C1CCCN(C(=O)CCC(=O)Nc2ccc3nc(N4CCOCC4)cc(C)c3c2)C1 (stereo not given),"inconclusive: 16.4 µM [cytotoxic, partial curve]",
CCOC(=O)N1CCC(N2Cc3cccc(C(=O)Nc4c(C)cccc4CC)c3C2=O)CC1,"inconclusive: 23.1 µM [rising, single point]",
Cc1ccc(C)c(NC(=O)C(NCC(C)(C)N2CCOCC2)c2ccccc2)c1 (stereo not given),"inconclusive: 20.6 µM [cytotoxic, single point]",
C/C(=N/NC(=O)CNC(=O)c1ccccn1)c1cccc([N+](=O)[O-])c1,"inconclusive: 18.4 µM [cytotoxic, single point]",
c1ccc(-c2cnnc(-c3ccccn3)n2)cc1,"inconclusive: 29.1 µM [cytotoxic, single point]",
COc1ccc(C2c3cc(OC)c(OC)cc3CC(=O)N2c2ccc(C)cc2)cc1 (stereo not given),inactive,
CN(CC(=O)Nc1ccc(F)cc1)c1ccc(S(=O)(=O)N2CCCCC2)cc1[N+](=O)[O-],active: 13 µM,
Cn1cccc1C(=O)N1CCN(S(=O)(=O)c2ccccc2)CC1,"inconclusive: 0.0259 µM [rising, full curve]",
Cc1cccc(Cn2c(=O)n3nc(-c4ccccc4)nc3c3ccccc32)c1,"inconclusive: 23.1 µM [cytotoxic, single point]",

Compound,Potency,"activity change, negative = cytotoxicity"
N#CC[C@H](c1ccccc1)N1CCN(Cc2ccccc2)CCC1=O,"inconclusive: 0.0058 µM [rising, full curve, poor fit]",
O=[N+]([O-])c1ccc(CSc2nnc(Cc3ccccc3)n2-c2ccc(F)cc2)cc1,"inconclusive: 11.6 µM [cytotoxic, partial curve]",
C[C@H](O)[C@@H]1C(=O)N2CCc3ccc(N4CCN(C)CC4)cc3[C@@H]2C[C@@H]1N(C)C(=O)c1ccc(C#N)cc1,"inconclusive: 32.6 µM [rising, single point]",
CCC(C)NC(=O)c1cc2cc3ccc(OC)cc3nc2o1 (stereo not given),"inconclusive: 16.4 µM [cytotoxic, partial curve, poor fit]",
CC1(C(=O)NS(C)(=O)=O)CCN1C(=O)C/C=C/c1ccccc1 (stereo not given),inactive,
Cc1cc(C)cc(Cn2c(C)c(C(=O)N(C)Cc3ccc(F)cc3)sc2=O)c1,"inconclusive: 9.2 µM [cytotoxic, partial curve]",
COc1ccccc1Nc1nc(-c2ccccc2F)nc2ccccc12,active: 8.2 µM,
CCOc1ccccc1N1CCN(C(=O)/C=C/c2cccc([N+](=O)[O-])c2)CC1,"inconclusive: 10.3 µM [cytotoxic, partial curve]",
Cn1c(=O)[nH]c2cc(-c3noc(-c4ccc(Br)cc4)n3)ccc21,,inconclusive: -14.1%
Cc1ccc(N2C(N)=C(C#N)C(c3cccs3)C3=C2CC(C)(C)CC3=O)cc1 (stereo not given),active: 7.31 µM,
COc1ccc(Cl)cc1NC(=O)Nc1cnccn1,"inconclusive: 1.3 µM [cytotoxic, full curve, poor fit]",
O=C(CSc1nc(-c2ccco2)cc(C(F)(F)F)n1)N1CCCc2ccccc21,"inconclusive: 16.4 µM [cytotoxic, partial curve]",
Cc1ccc(-c2csc(NC(=O)CSc3nc(C)cs3)n2)cc1,inactive,
O=C(c1ccccc1F)N1CCN(C2CCC(c3ccccc3)CC2)CC1 (stereo not given),"inconclusive: 10.3 µM [cytotoxic, partial curve]",
NN=C(NN=Cc1ccccc1)c1ccccc1,"inconclusive: 20.6 µM [cytotoxic, single point]",
CCOc1ccccc1NC(=O)CSc1nncc2ccccc12,inactive,
Cc1ccc(C(=O)C2=C(O)C(=O)N(Cc3ccco3)C2c2cccc(Cl)c2)o1 (stereo not given),"inconclusive: 29.1 µM [cytotoxic, single point]",
COc1ccc(C2NN=C(c3c[nH]c4ccccc34)C2O)cc1 (stereo not given),inactive,
CN(CC(=O)Nc1ccccc1Cl)C(=O)C1CCN(C(=O)c2ccc(F)cc2)CC1,inactive,
Cc1cc(C)cc(NC(=O)C2(c3ccccc3)CC2(Cl)Cl)c1 (stereo not given),"inconclusive: 18.4 µM [cytotoxic, single point]",
COc1cccc(NC(=O)CSc2nn3c(=O)c(C)nnc3s2)c1,inactive,
O=C(c1ccc(Cl)c(S(=O)(=O)N2CCOCC2)c1)N1CCN(c2ccccn2)CC1,inactive,
